Experimental data: the supplement of paper PMC12823440, “Inhibitors supercharge kinase turnover through native proteolytic circuits” (Nature, 2025)
Structures can show the parent of a compound that is named as a salt. This is one part of the list. The calls rarely recur for the same compound in another form.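 Kinases, fused to nanoluciferase, were expressed in K562 cells; luminescence was measured every 4 h from 2 to 18 h as percent of control (DMSO = 100%, positive control = 0%). A time point is decreased if signal falls significantly (2 sigma). Hits were called by the authors by a rule that is not shown; the count of time points alone does not decide it.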

By UniProt entry, the sequences of proteins in these tests, tags left out. Where a name states a change or a piece, a line headed by the entry shows the natural chain unless it says otherwise.
UniProt P07947, whole entry, looked up: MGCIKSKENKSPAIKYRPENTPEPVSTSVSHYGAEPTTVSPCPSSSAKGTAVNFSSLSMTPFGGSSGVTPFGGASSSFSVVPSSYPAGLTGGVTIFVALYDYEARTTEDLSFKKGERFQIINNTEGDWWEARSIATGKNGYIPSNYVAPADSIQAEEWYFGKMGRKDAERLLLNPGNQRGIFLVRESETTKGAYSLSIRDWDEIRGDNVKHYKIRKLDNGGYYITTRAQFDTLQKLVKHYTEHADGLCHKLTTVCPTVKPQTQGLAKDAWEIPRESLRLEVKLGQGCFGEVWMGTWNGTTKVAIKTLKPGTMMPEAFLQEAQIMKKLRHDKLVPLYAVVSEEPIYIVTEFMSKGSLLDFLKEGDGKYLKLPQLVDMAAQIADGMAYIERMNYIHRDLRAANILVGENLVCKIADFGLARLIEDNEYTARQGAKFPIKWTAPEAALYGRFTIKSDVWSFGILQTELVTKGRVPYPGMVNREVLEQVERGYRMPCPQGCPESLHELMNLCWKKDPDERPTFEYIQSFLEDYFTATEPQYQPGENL
UniProt P43403: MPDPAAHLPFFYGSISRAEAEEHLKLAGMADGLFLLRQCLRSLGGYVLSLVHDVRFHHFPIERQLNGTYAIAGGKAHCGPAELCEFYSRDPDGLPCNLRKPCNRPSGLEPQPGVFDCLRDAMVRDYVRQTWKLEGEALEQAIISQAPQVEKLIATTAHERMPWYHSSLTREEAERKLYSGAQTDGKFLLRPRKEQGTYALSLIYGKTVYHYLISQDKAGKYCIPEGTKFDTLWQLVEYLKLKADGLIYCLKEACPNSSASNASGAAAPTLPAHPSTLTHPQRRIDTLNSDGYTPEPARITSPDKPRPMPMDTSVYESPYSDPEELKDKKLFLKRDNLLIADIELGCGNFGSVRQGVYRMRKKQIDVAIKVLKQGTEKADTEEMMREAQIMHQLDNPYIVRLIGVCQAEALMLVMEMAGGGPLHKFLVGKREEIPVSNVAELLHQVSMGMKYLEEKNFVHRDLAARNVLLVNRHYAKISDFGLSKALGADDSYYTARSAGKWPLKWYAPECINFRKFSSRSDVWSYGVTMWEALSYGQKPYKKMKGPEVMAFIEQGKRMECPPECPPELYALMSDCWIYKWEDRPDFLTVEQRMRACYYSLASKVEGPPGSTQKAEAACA
UniProt P11802: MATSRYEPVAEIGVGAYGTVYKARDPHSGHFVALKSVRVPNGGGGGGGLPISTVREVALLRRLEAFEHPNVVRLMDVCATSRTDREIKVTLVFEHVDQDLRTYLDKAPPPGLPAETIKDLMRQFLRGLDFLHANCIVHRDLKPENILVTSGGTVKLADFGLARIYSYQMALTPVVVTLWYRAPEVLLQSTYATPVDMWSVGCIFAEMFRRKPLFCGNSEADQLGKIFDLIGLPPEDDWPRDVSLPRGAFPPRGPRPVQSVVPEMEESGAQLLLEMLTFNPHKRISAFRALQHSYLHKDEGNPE
UniProt P50613: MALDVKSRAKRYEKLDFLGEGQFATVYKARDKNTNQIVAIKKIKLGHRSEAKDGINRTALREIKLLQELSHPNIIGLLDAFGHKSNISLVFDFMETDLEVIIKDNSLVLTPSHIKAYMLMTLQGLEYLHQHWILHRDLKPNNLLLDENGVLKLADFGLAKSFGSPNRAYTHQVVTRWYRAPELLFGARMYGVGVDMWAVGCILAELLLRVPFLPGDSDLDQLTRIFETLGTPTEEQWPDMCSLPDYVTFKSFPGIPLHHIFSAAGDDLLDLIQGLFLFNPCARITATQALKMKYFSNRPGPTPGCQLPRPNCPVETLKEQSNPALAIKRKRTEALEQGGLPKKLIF
UniProt P50750, whole entry: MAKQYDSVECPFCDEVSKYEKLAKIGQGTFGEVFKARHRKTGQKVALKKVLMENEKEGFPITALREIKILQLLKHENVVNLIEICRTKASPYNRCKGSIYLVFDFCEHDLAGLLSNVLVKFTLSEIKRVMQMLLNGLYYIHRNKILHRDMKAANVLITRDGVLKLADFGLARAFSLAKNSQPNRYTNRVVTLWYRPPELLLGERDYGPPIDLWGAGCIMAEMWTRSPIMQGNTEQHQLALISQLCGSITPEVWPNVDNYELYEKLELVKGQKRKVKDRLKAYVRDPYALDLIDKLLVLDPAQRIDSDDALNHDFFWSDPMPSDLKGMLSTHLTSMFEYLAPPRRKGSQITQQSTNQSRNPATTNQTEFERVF

Tests used:
Details in all cases: K562; 2-18 h
YES1 = YES1 (UniProt P07947); assay: number of time points (of 5) at which kinase-Nluc abundance scored as decreased, DMSO-normalised (count); higher = more persistent destabilization
ZAK = ZAK (UniProt Q9NYL2); assay: as above
ZAP70 = ZAP70 (UniProt P43403); assay: as above
CDK4 = CDK4 (UniProt P11802); assay: number of time points (of 4; 2 h point missing) at which kinase-Nluc abundance scored as decreased, DMSO-normalised (count); higher = more persistent destabilization
CDK7 = CDK7 (UniProt P50613); assay: as above
CDK9 = CDK9 (UniProt P50750); assay: as above

| Structure (SMILES) | number of time points (YES1) | number of time points (ZAK) | number of time points (ZAP70) | number of time points (CDK4) | number of time points (CDK7) | number of time points (CDK9) |
| --- | --- | --- | --- | --- | --- | --- |
| O=C(Nc1cc(Oc2cc(F)c(NC(=O)C3(C(=O)Nc4ccc(F)cc4)CC3)cc2F)ccn1)C1CC1 [Altiratinib] (10 µM) | 0 | 0 | 0 | 0 | 0 | 0 |
| O=C1NC(=O)C(=Cc2ccc(-c3ccc(F)cc3)o2)S1 (stereo in doubt) (10 µM) | 0 | 0 | 0 | 0 | 0 | 0 |
| CC(C)=CCC[C@](C)(O[C@@H]1O[C@H](CO)[C@@H](O)[C@H](O)[C@H]1O)[C@H]1CC[C@]2(C)[C@@H]1[C@H](O)C[C@@H]1[C@@]3(C)CC[C@H](O)C(C)(C)[C@@H]3[C@@H](O[C@@H]3O[C@H](CO)[C@@H](O)[C@H](O)[C@H]3O[C@@H]3O[C@@H](C)[C@H](O)[C@@H](O)[C@H]3O)C[C@]12C [Ginsenoside Re] (10 µM) | 0 | 0 | 0 | 0 | 0 | 1 |
| CNC(=O)c1ccc(-c2cnc3cnc(C(=O)N(C)c4ccc(Cl)cc4)cn23)cc1 (2.5 µM) | 0 | 0 | 0 | 0 | 0 | 0 |
| COc1ccc(C(=C2C(=O)Nc3ccccc32)c2ccc(OC)cc2)cc1 (10 µM) | 0 | 0 | 0 | 0 | 0 | 0 |
| NCc1ccc(Nc2ncc(F)c(Nc3ccccc3)n2)cc1 (10 µM) | 0 | 0 | 0 | 0 | 0 | 0 |
| COCCOc1cnc(Sc2cc(C)c(-c3csc(NC(=O)c4ccncc4)n3)c(C)c2)cn1 [T-1101 (tosylate)] (2.5 µM) | 0 | 0 | 0 | 0 | 1 | 0 |
| C=C(CCC=C(C)C)[C@H]1CC[C@]2(C)[C@@H]1[C@H](O)C[C@@H]1[C@@]3(C)CC[C@H](O[C@@H]4O[C@H](CO)[C@@H](O)[C@H](O)[C@H]4O[C@@H]4O[C@H](CO)[C@@H](O)[C@H](O)[C@H]4O)C(C)(C)[C@@H]3CC[C@]12C [Ginsenoside Rk1] (10 µM) | 0 | 0 | 0 | 0 | 0 | 0 |
| CC[C@@]1(c2ccccc2)C2=C(CC(C)(C)CC2=O)Nc2[nH]ncc21 (10 µM) | 0 | 0 | 0 | 0 | 0 | 0 |
| COc1ccc([C@@H]2CC(=O)c3c(O)cc(O)cc3O2)cc1O [Hesperetin] (10 µM) | 0 | 0 | 0 | 0 | 0 | 0 |
| CC1CCc2nc(N)c(C#N)c(-c3cccnc3)c2C1 (stereo not drawn) (10 µM) | 0 | 0 | 0 | 0 | 0 | 0 |
| COc1ncc(-c2nc(N3CCOCC3)nc3c(CN4CCC(C(C)(C)O)CC4)cc(F)cc23)cc1NS(C)(=O)=O [Linperlisib] (10 µM) | 0 | 0 | 0 | 0 | 0 | 0 |
| c1cn2cc(-c3ccc4cn[nH]c4c3)nc(Nc3ccc(N4CCOCC4)cc3)c2n1 [Entospletinib] (10 µM) | 0 | 0 | 0 | 0 | 0 | 0 |
| Cc1csc(-c2nnc(Nc3ccc(Oc4ncccc4-c4ccnc(N)n4)cc3)c3ccccc23)c1 (2.5 µM) | 0 | 0 | 0 | 0 | 0 | 0 |
| CNc1nc(Nc2cnn(C3CCN(C4COC4)CC3F)c2Cl)ncc1C(F)(F)F (stereo not drawn) (10 µM) | 0 | 0 | 0 | 0 | 0 | 0 |
| COc1cc2c[n+](C)c3c4cc5c(cc4ccc3c2cc1OC)OCO5 [Nitidine (chloride)] (2 µM) | 0 | 0 | 0 | 0 | 0 | 0 |
| CCn1c(-c2nonc2N)nc2cnc(Oc3cccc(NC(=O)c4ccc(OCCN5CCOCC5)cc4)c3)cc21 (10 µM) | 0 | 0 | 0 | 0 | 2 | 0 |
| COc1cc2ncnc(Nc3cccc(Cl)c3)c2cc1OC (10 µM) | 0 | 0 | 0 | 0 | 0 | 0 |
| CC(C)=CC(=O)CCC(=O)N1CCN(Cc2cc3nc(-c4cccc5[nH]ncc45)nc(N4CCOCC4)c3s2)CC1 (10 µM) | 0 | 0 | 0 | 0 | 0 | 4 |
| N#Cc1c(-c2ccccc2)cc(-c2cc(Br)ccc2O)[nH]c1=O (10 µM) | 0 | 0 | 0 | 0 | 0 | 0 |
| CCn1c(=O)c(-c2ccc(-c3cncs3)cc2Cl)cc2cnc(Nc3ccc(N4CCN(C)CC4)cc3)nc21 (2.5 µM) | 0 | 0 | 0 | 0 | 0 | 0 |
| CC(C)CN[C@H]1CS(=O)(=O)C[C@@H]1S(=O)(=O)c1ccc(Cl)cc1 (10 µM) | 0 | 0 | 0 | 0 | 0 | 0 |
| Cc1ccc(-c2c(C(=O)CCl)n(CCCO)c3ncnc(N)c23)cc1 (10 µM) | 4 | 0 | 0 | 0 | 0 | 0 |
| Cc1c(CN2CCN(C(=O)[C@H](C)O)CC2)sc2c(N3CCOCC3)nc(-c3cnc(N)nc3)nc12 [Apitolisib] (10 µM) | 0 | 0 | 0 | 0 | 4 | 3 |
| O=C(Nc1cccnc1)c1cc(C(=O)c2c(F)cccc2Br)c[nH]1 (10 µM) | 0 | 0 | 0 | 0 | 0 | 0 |
| O=c1cc(O)cc(/C=C/c2ccc(O)c(O)c2)o1 [Hispidin] (10 µM) | 0 | 0 | 0 | 0 | 0 | 0 |
| C=CC(=O)Nc1ccc(CN(C(=O)Nc2c(Cl)c(OC)cc(OC)c2Cl)c2cc(Nc3ccc(N4CCN(C)CC4)cc3)ncn2)cc1 (10 µM) | 0 | 0 | 0 | 0 | 0 | 0 |
| CC(C)CN(CC(=O)N1CCN(CC(OCc2ccc3ccccc3c2)c2ccc(Cl)cc2Cl)CC1)CC(C)C (stereo not drawn) [LYN-1604 (dihydrochloride)] (2.5 µM) | 0 | 0 | 0 | 0 | 0 | 0 |

Taken from above:
number of time points (CDK4), O=c1cc(O)cc(/C=C/c2ccc(O)c(O)c2)o1 [Hispidin] (10 µM) is entered as 0
number of time points (CDK4), CC(C)CN[C@H]1CS(=O)(=O)C[C@@H]1S(=O)(=O)c1ccc(Cl)cc1 (10 µM) is entered as 0
